For some of these results: Results from cells or extracts need not show a direct contact. No signal at the amounts used counts as a negative. For some of these results: Protein sequences can lack the tags named with them. For some of these results: Construct, isoform or probe ends are uncertain for at least one entry.
What was measured:
[1] = test system: MusTRD-containing complexes, mouse soleus and EDL nuclear extract (Mus musculus); assay: EMSA; settings: protein in an extract
[2] = test system: T1, hMusTRD1α1 (yeast) (Homo sapiens); assay: one hybrid; settings: protein in cells, only the site is given
T1 sequence (looked up, limits assumed): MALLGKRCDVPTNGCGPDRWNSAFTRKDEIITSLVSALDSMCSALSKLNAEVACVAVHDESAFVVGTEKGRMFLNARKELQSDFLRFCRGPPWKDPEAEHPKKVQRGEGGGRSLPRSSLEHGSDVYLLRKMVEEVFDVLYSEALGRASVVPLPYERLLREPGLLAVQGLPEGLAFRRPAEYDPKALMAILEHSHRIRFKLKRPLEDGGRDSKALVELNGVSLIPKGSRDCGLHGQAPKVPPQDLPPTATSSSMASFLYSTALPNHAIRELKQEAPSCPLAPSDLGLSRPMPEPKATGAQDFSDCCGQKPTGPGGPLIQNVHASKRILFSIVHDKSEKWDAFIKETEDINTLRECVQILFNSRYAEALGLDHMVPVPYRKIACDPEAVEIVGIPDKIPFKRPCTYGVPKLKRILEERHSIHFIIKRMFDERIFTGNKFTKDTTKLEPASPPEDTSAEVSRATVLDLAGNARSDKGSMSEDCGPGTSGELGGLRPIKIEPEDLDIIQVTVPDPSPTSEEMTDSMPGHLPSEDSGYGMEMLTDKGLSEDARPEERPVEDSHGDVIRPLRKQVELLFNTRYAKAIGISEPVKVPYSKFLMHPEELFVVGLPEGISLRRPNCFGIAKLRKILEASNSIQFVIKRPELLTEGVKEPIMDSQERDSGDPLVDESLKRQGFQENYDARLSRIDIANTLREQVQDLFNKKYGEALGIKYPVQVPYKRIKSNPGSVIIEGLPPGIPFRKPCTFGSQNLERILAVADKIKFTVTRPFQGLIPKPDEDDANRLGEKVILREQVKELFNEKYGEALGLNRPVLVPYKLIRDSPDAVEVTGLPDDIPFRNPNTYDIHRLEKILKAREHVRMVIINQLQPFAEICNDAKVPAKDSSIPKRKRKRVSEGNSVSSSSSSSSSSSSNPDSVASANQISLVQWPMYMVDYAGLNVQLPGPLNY

[3] = test system: T2, ΔhMusTRD1α1 (yeast) (Homo sapiens); assay: one hybrid; settings: protein in cells; variant of USE-B1 tandem repeats (yeast reporter); only the site is given
T2 sequence (looked up): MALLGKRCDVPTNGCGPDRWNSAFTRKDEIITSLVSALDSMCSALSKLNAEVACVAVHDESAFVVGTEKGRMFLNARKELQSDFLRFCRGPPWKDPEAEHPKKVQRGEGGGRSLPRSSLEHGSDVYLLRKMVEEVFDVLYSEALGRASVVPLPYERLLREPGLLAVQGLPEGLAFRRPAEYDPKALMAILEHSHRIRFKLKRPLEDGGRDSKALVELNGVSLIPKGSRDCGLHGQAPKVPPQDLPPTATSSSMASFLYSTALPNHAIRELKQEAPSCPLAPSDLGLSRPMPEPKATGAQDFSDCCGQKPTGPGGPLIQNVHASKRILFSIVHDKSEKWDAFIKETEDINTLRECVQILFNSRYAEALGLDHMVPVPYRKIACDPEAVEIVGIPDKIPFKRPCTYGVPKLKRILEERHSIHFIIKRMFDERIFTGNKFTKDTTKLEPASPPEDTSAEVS

[4] = test system: T3, hMusTRD1α1 458aa (Homo sapiens); assay: EMSA; settings: protein translated in vitro, protein details: myc/his, label: 32P
T3 sequence (looked up): T2 sequence (looked up)

[5] = test system: T4, hMusTRD1α1 ΔN444 internal deletion of amino acids 100-544 (Homo sapiens); assay: EMSA; settings: protein translated in vitro, protein details: myc/his, label: 32P
T4 sequence (looked up): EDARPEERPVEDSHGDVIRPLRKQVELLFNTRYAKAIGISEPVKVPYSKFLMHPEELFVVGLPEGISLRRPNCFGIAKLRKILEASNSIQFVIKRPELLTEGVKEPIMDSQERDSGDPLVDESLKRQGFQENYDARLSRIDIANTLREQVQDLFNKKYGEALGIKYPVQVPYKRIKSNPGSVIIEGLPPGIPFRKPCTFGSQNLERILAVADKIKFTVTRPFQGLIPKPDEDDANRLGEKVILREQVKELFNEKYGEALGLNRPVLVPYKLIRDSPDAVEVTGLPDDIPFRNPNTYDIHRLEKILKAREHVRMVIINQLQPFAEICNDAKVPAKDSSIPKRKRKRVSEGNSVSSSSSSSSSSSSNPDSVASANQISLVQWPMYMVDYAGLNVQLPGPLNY

[6] = test system: T5, hMusTRD1α1 786aa (Homo sapiens); assay: EMSA; settings: protein translated in vitro, protein details: myc/his, label: 32P
T5 sequence (looked up): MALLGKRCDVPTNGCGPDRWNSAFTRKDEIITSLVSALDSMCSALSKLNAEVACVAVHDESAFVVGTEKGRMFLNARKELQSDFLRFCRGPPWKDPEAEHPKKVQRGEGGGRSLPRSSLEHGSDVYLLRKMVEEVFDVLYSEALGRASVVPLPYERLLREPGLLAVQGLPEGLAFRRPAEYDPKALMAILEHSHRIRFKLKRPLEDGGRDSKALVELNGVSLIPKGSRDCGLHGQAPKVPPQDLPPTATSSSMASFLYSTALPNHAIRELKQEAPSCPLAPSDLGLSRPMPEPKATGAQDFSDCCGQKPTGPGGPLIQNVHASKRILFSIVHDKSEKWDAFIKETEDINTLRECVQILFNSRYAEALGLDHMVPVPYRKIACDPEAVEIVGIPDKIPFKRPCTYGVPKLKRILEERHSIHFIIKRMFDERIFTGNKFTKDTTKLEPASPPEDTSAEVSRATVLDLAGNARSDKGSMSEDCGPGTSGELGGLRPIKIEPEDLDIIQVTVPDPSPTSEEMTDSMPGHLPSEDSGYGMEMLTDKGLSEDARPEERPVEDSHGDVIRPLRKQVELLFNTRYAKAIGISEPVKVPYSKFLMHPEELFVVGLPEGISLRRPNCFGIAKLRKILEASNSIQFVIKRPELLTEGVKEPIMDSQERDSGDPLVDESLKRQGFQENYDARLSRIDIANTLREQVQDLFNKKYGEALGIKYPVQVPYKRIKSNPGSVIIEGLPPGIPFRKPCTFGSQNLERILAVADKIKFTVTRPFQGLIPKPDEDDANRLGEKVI

[7] = test system: T6, hMusTRD1α1 (944aa, full length) (Homo sapiens); assay: EMSA; settings: protein translated in vitro, protein details: myc/his (pcDNA3.1myc/his), label: 32P
T6 sequence (looked up): T1 sequence (looked up, limits assumed)

[8] = test system: T7, hMusTRD1α1 564aa (Homo sapiens); assay: EMSA; settings: protein translated in vitro, protein details: myc/his, label: 32P
T7 sequence (looked up): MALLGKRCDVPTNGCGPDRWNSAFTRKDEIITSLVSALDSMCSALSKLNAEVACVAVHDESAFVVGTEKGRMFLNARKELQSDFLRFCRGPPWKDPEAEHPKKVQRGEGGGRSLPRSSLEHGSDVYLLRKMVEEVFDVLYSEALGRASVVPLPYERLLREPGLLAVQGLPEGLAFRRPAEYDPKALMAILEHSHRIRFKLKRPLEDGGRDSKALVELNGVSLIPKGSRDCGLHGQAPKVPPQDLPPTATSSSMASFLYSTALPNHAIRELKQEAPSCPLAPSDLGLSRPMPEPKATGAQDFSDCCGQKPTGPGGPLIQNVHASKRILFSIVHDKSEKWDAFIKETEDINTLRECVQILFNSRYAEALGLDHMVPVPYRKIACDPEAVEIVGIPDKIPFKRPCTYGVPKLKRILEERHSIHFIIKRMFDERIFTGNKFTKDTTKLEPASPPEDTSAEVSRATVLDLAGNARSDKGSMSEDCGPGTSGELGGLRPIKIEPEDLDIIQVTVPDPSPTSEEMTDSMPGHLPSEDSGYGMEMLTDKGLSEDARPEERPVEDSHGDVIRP

[9] = test system: T8, hMusTRD1α1 350aa (Homo sapiens); assay: EMSA; settings: RD1 only; protein translated in vitro; protein details: myc/his; label: 32P
T8 sequence (looked up): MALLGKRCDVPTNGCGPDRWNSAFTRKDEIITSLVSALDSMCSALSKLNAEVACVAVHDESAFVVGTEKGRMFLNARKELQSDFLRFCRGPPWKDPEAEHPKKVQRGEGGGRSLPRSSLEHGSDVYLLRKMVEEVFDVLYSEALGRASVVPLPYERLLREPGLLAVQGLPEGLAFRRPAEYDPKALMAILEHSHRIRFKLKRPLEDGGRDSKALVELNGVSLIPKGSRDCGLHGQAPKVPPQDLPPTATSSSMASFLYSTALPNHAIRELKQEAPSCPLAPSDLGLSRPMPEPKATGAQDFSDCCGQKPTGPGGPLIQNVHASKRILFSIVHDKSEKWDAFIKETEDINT

## AGCCACAGGATTAACATA (double strand) [USE-B1]
[1]; nuclear extracts of soleus and EDL
  binding result: binds

## AGCCACAGGATATCCATA (double strand) [USE-B1b]
[1]; variant of USE-B1
  binding result: no binding

## AGCCACAGGATTAACATA (double strand) [USE-B1 tandem repeats (yeast reporter)]
[2]
  binding result: binds

## AGCCACAGGATATCCATA (double strand) [USE-B1b tandem repeats (yeast reporter)]
[3]
  binding result: no binding
[2]; variant of USE-B1 tandem repeats (yeast reporter)
  binding result: no binding

## AGCCACAGGATATCCATAAGCCACAGGATATCCATAAGCCACAGGATATCCATA (double strand) [(B1b)3x]
[4]; variant of (B1)3x, TnIslow USE
  binding result: no binding
[5]; variant of (B1)3x, TnIslow USE
  binding result: no binding
[6]; variant of (B1)3x, TnIslow USE
  binding result: no binding
[7]; variant of (B1)3x, TnIslow USE
  binding result: no binding
[8]; variant of (B1)3x, TnIslow USE
  binding result: no binding

## AGCCACAGGATTAACATAAGCCACAGGATTAACATAAGCCACAGGATTAACATA (double strand) [(B1)3x, TnIslow USE]
[4]; DBD1 in 351-458
  binding result: binds
[9]
  binding result: no binding
[5]; DBD2 in 544-944
  binding result: binds
[6]; most avid of the deletions
  binding result: binds
[7]; blocked by anti-MusTRD 1-20aa antibody, poly(dI-dC), RT
  binding result: binds
[8]
  binding result: binds
